Measured values taken from patent publication US11793880B2 (Seagen Inc., priority 2015, dated 2023).

Test: general procedure: solution-phase peptide synthesis; HATU/DIPEA
Settings: late stage modification step

| Substance | step yield [%] |
| --- | --- |
| (2R)-1-(3-((S)-44-((S)-3-amino-2-(2,5-dioxo-2,5-dihydro-1H-pyrrol-1-yl)propanamido)-38,45-dioxo-2,5,8,11,14,17,20,23,26,29,32,35-dodecaoxa-39,46-diazanonatetracontanamido)-4-(((2S,3R,4S,5S,6S)-6-carboxy-3,4,5-trihydroxytetrahydro-2H-pyran-2-yl)oxy)benzyl)-2-(((2S,3S)-1-(((1R,3R)-1 (4-(((2R,4S)-4-carboxy-1-phenylpentan-2-yl)carbamoyl)thiazol-2-yl)-4-methyl-1-propoxypentan-3-yl)(methyl)amino)-3-methyl-1-oxopentan-2-yl)carbamoyl)-1-methylpiperidin-1-ium | 92 |
| (2R)-1-(3-((S)-44-((S)-3-amino-2-(2,5-dioxo-2,5-dihydro-1H-pyrrol-1-yl)propanamido)-38,45-dioxo-2,5,8,11,14,17,20,23,26,29,32,35-dodecaoxa-39,46-diazanonatetracontanamido)-4-(((2S,3R,4S,5S,6S)-6-carboxy-3,4,5-trihydroxytetrahydro-2H-pyran-2-yl)oxy)benzyl)-2-(((2S,3S)-1-(((1R,3R)-1-(4-(((2R,4S)-4-carboxy-1-phenylpentan-2-yl)carbamoyl)thiazol-2-yl)-1-ethoxy-4-methylpentan-3-yl)(methyl)amino)-3-methyl-1-oxopentan-2-yl)carbamoyl)-1-methylpiperidin-1-ium | 83 |
| (2R)-2-(((2S,3S)-1-(((1R,3R)-1-acetoxy-1-(4-(((2R,4S)-4-carboxy-1-phenylpentan-2-yl)carbamoyl)thiazol-2-yl)-4-methylpentan-3-yl)(methyl)amino)-3-methyl-1-oxopentan-2-yl)carbamoyl)-1-(4-((44S,47S,50S)-44-((S)-3-amino-2-(2,5-dioxo-2,5-dihydro-1H-pyrrol-1-yl)propanamido)-50-(2-carboxyethyl)-47-isopropyl-38,45,48-trioxo-2,5,8,11,14,17,20,23,26,29,32,35-dodecaoxa-39,46,49-triazahenpentacontanamido)benzyl)-1-methylpiperidin-1-ium | 70 |
| (2R)-2-(((2S,3S)-1-(((1R,3R)-1-acetoxy-1-(4-(((2R,4S)-4-carboxy-1-phenylpentan-2-yl)carbamoyl)thiazol-2-yl)-4-methylpentan-3-yl)(methyl)amino)-3-methyl-1-oxopentan-2-yl)carbamoyl)-1-(4-((S)-2-((S)-2-((S)-3-amino-24 (2,5-dioxo-2,5-dihydro-1H-pyrrol-1-yl)propanamido)-3-methylbutanamido)-4-carboxybutanamido)benzyl)-1-methylpiperidin-1-ium | 93 |
